Measurements from publication PMC5587910, “Methionine Sulfoxide Reductase A (MsrA) and Its Function in Ubiquitin-Like Protein Modification in Archaea” (mBio, 2017).
These are yes or no findings as the source states them, for the method shown. In cells and extracts the contact can be indirect. Here binding means that the protein was enriched with, or labelled near, the bait; the list need not be complete. Tags and fused reporters may be left off the sequences shown.

T1: Flag-SAMP1 S85R (Haloferax volcanii) (UniProt D4GUF6)
T1 sequence: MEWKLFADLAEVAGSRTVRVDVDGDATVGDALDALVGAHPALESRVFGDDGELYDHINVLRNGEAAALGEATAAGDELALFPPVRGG

B1: Fe-S cluster assembly ATPase SufC (protein, UniProt D4GUK6 1-301)
chain: MATLEIKNLHARVAEEDGEQILRGVDLEVKSGEIHALMGPNGSGKSTTSKIIAGHPAYEVTDGEILLHLEDDDFGDLEIPDDARTWNLLELEPNERAALGIFLGFQYPAEIEGVTMTNFLRTALNAKIDEREELLFGEDAEEEEEEAGYDTSPMEGNVDDGEVGVAEFQKLLKEKMDLLDMDEKFMQRYLNAGFSGGEKKQNEVLQAAILEPSIAVLDEIDSGLDIDRLQDVSKGINALRDEQGTGILQITHYQRILEYVEPDHVHIMLDGKVVKSGDASLASELEDKGYDWVREEVYEAA
B2: Molybdopterin molybdenum transferase MoeA2 (protein, UniProt D4GWD6 1-634)
chain: MRKQFRDLASPEDAREAIASLDLTPDAETVALDDARGRVLAERIDAELDVPGFDRASMDGYAVRARDTFGADEADPVELDLAGAVHAGNEPDVAVDPGTAVEISTGAVMPPGADAVVIVERTEERDGSLVVYSSVAPGDSVMPAGTDTAAGARALGPGTRLTPREIGLLSALGVDEVPVRGKPTVGIVSTGDELVRPGDELRPEAGEIYDVNSYTIAAGVEEAGGVPKLYPHAGDDYEEMERLLRRAADECDLVLSSGSTSASAVDVIYRVVEERGELLLHGVSVKPGKPMLVGTLGEGSAYIGLPGYPVSALTIFRTFVAPAVRDAAGLPEPRTATVEGTMAARERYAEGRTRLMPVGLVADGDGETLVYPVDKGSGATTSLVEADGVVEVSADVEYLAEGESVTVHLFSPDVRAPALLGVGEDDPALSRVLDRVSSPRYLPFGSREGLRRLRDGISDVAVVAGDRGDAIDDIDAVELGSWTREWGLVVPAGNPDGVSGLADLVDDDLRFINRDSNSGLRTDLGNAVAALADERGTTRHELVESIEGFDRGTKAFESPARAVAAGRADAGLGLRATADSLGLDFVSLGTQPVAVLANPARIEKPGVDSLRDALAASDDAFADLSGFERGQTPR
B3: Thermosome subunit 1 (protein, UniProt O30561 1-560)
chain: MSQRMQQGQPMIILGEDSQRTSGQDAQSMNITAGKAVAEAVRTTLGPKGMDKMLVDSGGQVVVTNDGVTILKEMDIDHPAANMIVEVSETQEDEVGDGTTTAVINAGELLDQAEDLLDSDVHATTIAQGYRQAAEKAKEVLEDNAIEVTEDDRETLTKIAATAMTGKGAESAKDLLSELVVDAVLAVKDDDGIDTNNVSIEKVVGGTIDNSELVEGVIVDKERVDENMPYAVEDANIAILDDALEVRETEIDAEVNVTDPDQLQQFLDQEEKQLKEMVDQLVEVGADAVFVGDGIDDMAQHYLAKEGILAVRRAKSSDLKRLARATGGRVVSSLDDIEADDLGFAGSVGQKDVGGDERIFVEDVEDAKSVTLILRGGTEHVVDELERAIEDSLGVVRTTLEDGKVLPGGGAPETELSLQLREFADSVGGREQLAVEAFAEALDIIPRTLAENAGLDPIDSLVDLRSRHDGGEFAAGLDAYTGEVIDMEEEGVVEPLRVKTQAIESATEAAVMILRIDDVIAAGDLSGGQTGSDDDDGGAPGGMGGGMGGMGGMGGMGGAM

target: T1, Flag-SAMP1 S85R (Haloferax volcanii); assay: affinity purification with mass spectrometry; Flag-SAMP1 S85R expressed in Hfx. volcanii H26 (parent) grown with 100 mM DMSO; lysate (2 M NaCl, 1% Triton X-100, 1 mM EDTA) on anti-Flag M2 beads, washed in TBS, eluted with 3x Flag peptide; reducing SDS-PAGE, gel regions of 30 to 45 and 60 to 200 kDa analysed by LC-MS/MS; ΔmsrA strain in …

binding, binds:
B1
B2
B3
